Source: patent US20130331333A1 (HADASIT MEDICAL RESEARCH SERVICES AND DEVELOPMENT, published 2013)

B1: GST-PH-Etk/Bmx (other, UniProt P51813 1-111, looked up)
chain: MDTKSILEELLLKRSQQKKKMSPNNYKERLFVLTKTNLSYYEYDKMKRGSRKGSIEIKKIRCVEKVNLEEQTPVERQYPFQIVYKDGLLYVYASNEESRSQWLKALQKEIR
notes: domain: PH domain; Made as in Chen et al. 2001; also called GST-Etk-PH; GST-Etk/Bmx; not shown: GST tag
B2: Etk/Bmx (epithelial tyrosine kinase), wild type (enzyme, UniProt P51813 1-675, looked up)
chain: MDTKSILEELLLKRSQQKKKMSPNNYKERLFVLTKTNLSYYEYDKMKRGSRKGSIEIKKIRCVEKVNLEEQTPVERQYPFQIVYKDGLLYVYASNEESRSQWLKALQKEIRGNPHLLVKYHSGFFVDGKFLCCQQSCKAAPGCTLWEAYANLHTAVNEEKHRVPTFPDRVLKIPRAVPVLKMDAPSSSTTLAQYDNESKKNYGSQPPSSSTSLAQYDSNSKKIYGSQPNFNMQYIPREDFPDWWQVRKLKSSSSSEDVASSNQKERNVNHTTSKISWEFPESSSSEEEENLDDYDWFAGNISRSQSEQLLRQKGKEGAFMVRNSSQVGMYTVSLFSKAVNDKKGTVKHYHVHTNAENKLYLAENYCFDSIPKLIHYHQHNSAGMITRLRHPVSTKANKVPDSVSLGNGIWELKREEITLLKELGSGQFGVVQLGKWKGQYDVAVKMIKEGSMSEDEFFQEAQTMMKLSHPKLVKFYGVCSKEYPIYIVTEYISNGCLLNYLRSHGKGLEPSQLLEMCYDVCEGMAFLESHQFIHRDLAARNCLVDRDLCVKVSDFGMTRYVLDDQYVSSVGTKFPVKWSAPEVFHYFKYSSKSDVWAFGILMWEVFSLGKQPYDLYDNSQVVLKVSQGHRLYRPHLASDTIYQIMYSCWHELPEKRPTFQQLLSSIEPLREKDKH

Assays:
[1] = biological target: hPar2 mutant K352A (human); experiment: HEK-293T lysates on PH-Etk/Bmx
[2] = biological target: truncated form of hPar2 (human); experiment: Etk/Bmx expressing cell lysates and GST-PAR2 C-tails

Binder	binding [1]	binding [2]
B1	no binding	
B2		no binding

Results are given in words; binding and its absence hold for the method and conditions named. For some assays here: Sequences can lack the tags named with a protein.
